Measurements reported in PubChem BioAssay AID602196 (INSERM, 2012).

Aim: 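Genes whose knock-down alters cisplatin killing of lung cancer cells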
Cell system: human A549 lung cancer cells
Reagent: siRNA pair against human genes
Duration: 48 h transfection before cisplatin; time from cisplatin to read-out not stated
Conditions: cisplatin at a dose killing half of control-siRNA cells; exact dose and duration not given
Measurement: 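Shift in cisplatin death relative to control siRNA, from -50 (all cells die) to +50 (no cells die); siRNAs harmful on their own scored 0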
Reading the numbers: two-siRNA summed score (-2 to +2): higher = both siRNAs protect from cisplatin killing; -2 means both sensitise; mean protection from cisplatin (shift in death): higher = protection from cisplatin killing
Rule for the call: 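siRNAs harmful alone (LDH or WST-1) get 0; others get +1 for less and -1 for more cisplatin killing; genes are active when the two siRNAs give the same sign, summing to ±2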
Calls: active = both siRNAs shift cisplatin killing the same way; inactive = no consistent shift, or siRNA harmful alone
In all, the deposit lists about 23,000 reagents; below is a part drawn at random. 455 of all reagents (2%) count as active. 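Active includes both protection and sensitisation; some change values fall well beyond the stated -50 to +50 range.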 Further read-outs or replicates are left out here. The record does not give: the amount of reagent.

| gene | two-siRNA summed score (-2 to +2) | mean protection from cisplatin (shift in death) (%) | call |
| --- | --- | --- | --- |
| KIAA1571 | 0 | 5.8 | inactive |
| CAMK1 (calcium/calmodulin dependent protein kinase I) | 1 | 20.1 | inactive |
| ERMN (ermin) | 0 | 2.3 | inactive |
| WASF3 (WASP family member 3) | 0 | -10.3 | inactive |
| CACNB2 (calcium voltage-gated channel auxiliary subunit beta 2) | 0 | -6.9 | inactive |
| RP2 (RP2 activator of ARL3 GTPase) | 0 | -3.2 | inactive |
| TLN2-AS2 (TLN2 antisense RNA 2) | 0 | 7.6 | inactive |
| MYRIP (myosin VIIA and Rab interacting protein) | 0 | 4.5 | inactive |
| STUB1-DT (STUB1 divergent transcript) | 0 | 16.1 | inactive |
| LOC441627 | 0 | 7 | inactive |
| TXNDC16 (thioredoxin domain containing 16) | -1 | -13.3 | inactive |
| PEX39 (peroxisomal biogenesis factor 39) | 1 | 42.8 | inactive |
| IL12A (interleukin 12A) | -1 | -10.9 | inactive |
| ANAPC4 (anaphase promoting complex subunit 4) | 0 | 1 | inactive |
| FSCN2 (fascin actin-bundling protein 2, retinal) | 0 | -5.3 | inactive |
| LOC440860 | 0 | 5.8 | inactive |
| ITGA8 (integrin subunit alpha 8) | 0 | 1.7 | inactive |
| MEOX1 (mesenchyme homeobox 1) | 0 | 9.5 | inactive |
| VPS36 (vacuolar protein sorting 36 homolog) | 0 | 6.5 | inactive |
| QRFPR (pyroglutamylated RFamide peptide receptor) | 1 | 7.9 | inactive |
| ADGRE2 (adhesion G protein-coupled receptor E2) | -1 | -8.7 | inactive |
| LRRC3B (leucine rich repeat containing 3B) | 0 | 0.3 | inactive |
| CBX1 (chromobox 1) | 1 | 6.8 | inactive |
| ELP5 (elongator acetyltransferase complex subunit 5) | 0 | 6.8 | inactive |
| LINC01566 (long independently transcribed non-coding RNA 1566) | 0 | 3.5 | inactive |
| TMEM185A (transmembrane protein 185A) | 0 | 3.2 | inactive |
| CDK5RAP3 (CDK5 regulatory subunit associated protein 3) | 0 | 5.9 | inactive |
| SPDYE3 (speedy/RINGO cell cycle regulator family member E3) | 0 | 11.8 | inactive |
| ANK2 (ankyrin 2) | 1 | 16.6 | inactive |
| ERVK-6 (endogenous retrovirus group K member 6, envelope) | 0 | -3.9 | inactive |
| LOC200312 | 0 | 8.9 | inactive |
| DNTTIP1 (deoxynucleotidyltransferase terminal interacting protein 1) | 1 | 9.8 | inactive |
| EIF2B1 (eukaryotic translation initiation factor 2B subunit alpha) | 0 | -3.8 | inactive |
| LOC388938 | 0 | 11.2 | inactive |
| NIPAL3 (NIPA like domain containing 3) | 0 | 9.1 | inactive |
| ZNF287 (zinc finger protein 287) | 1 | 5.3 | inactive |
| PTMAP11 (prothymosin alpha pseudogene 11) | 0 | 9.9 | inactive |
| PNPLA2 (patatin like domain 2, triacylglycerol lipase) | -1 | -12 | inactive |
| ZRSR2 | 0 | 2.2 | inactive |
